In PMC4915159 one finds binding data, which are given here for one molecule.

Sequences of proteins named here, by UniProt entry; tags and fusion partners are left off.
UniProt P06730: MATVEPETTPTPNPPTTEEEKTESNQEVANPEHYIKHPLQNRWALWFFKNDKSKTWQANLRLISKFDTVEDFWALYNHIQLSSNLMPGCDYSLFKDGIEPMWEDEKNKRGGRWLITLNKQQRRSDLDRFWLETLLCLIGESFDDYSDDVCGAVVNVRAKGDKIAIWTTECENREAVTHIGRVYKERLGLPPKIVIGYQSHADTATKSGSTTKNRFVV

No constants are given. Whether binding was seen depends on the method and setting. In cells and extracts the contact can be indirect. Some results given as binding are weak or reduced against the parent protein; the word gives no strength.

The target of this test is eukaryotic translation initiation factor 4E (eIF4E) (human (endogenous in MiaPaCa-2)) (UniProt P06730). In words: pull-down; cap (m7GDP) pull-down: lysates of MiaPaCa-2 cells treated with rapamycin (100 nM) or PP242 (1 uM) for 2, 6 or 24 h; 1 mg protein extract incubated 2 h at 4 °C with m7GDP-agarose beads in 50 mM HEPES-KOH pH 7.5, 150 mM KCl, 1 mM EDTA, 2 mM DTT, 1% Triton X-100; five washes; m7GDP-bound proteins seen by western blotting. In general terms: In western blotting, separated proteins are transferred to a membrane and probed.

B1: eIF4E-binding protein 3 (4E-BP3) (protein, UniProt O60516 1-100)
chain: MSTSTSCPIPGGRDQLPDCYSTTPGGTLYATTPGGTRIIYDRKFLLECKNSPIARTPPCCLPQIPGVTTPPTAPLSKLEELKEQETEEEIPDDAQFEMDI
In the case of B1, the binding entry is given as “binds”.
